Data: PubChem BioAssay AID485298 (National Center for Advancing Translational Sciences (NCATS), 2010)
Among all 320,000 compounds or so, about 740 (0.23%) were called active. The shares of active, inactive and inconclusive entries below differ from those in the screen. Calls follow the shape of the dose curve; as a rule, active = well fitted activation curve with a large enough effect; inconclusive = small, poorly fitted or top-dose-only effect; inactive = no such curve, though single readings can be large or run the other way. Where the call is inconclusive, the potency comes from a doubtful curve fit. Some compounds were tested as several samples or in several runs, with calls that do not always agree.
Potency is read from the fitted curve at half-maximal effect.

Assay: qHTS Assay for Small Molecule Inhibitors of Mitochondrial Division or Activators of Mitochondrial Fusion; also: nearly all actives have a fitted effect of over 45% in size;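 as to growth rescue (activation): temperature-sensitive fusion mutants such as fzo1-1 at 37 °C on non-fermentable ethanol glycerol medium; % of control where 0% means no effect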
Conditions: S. cerevisiae fusion-defective mutant growth rescue, CellTiterGlo 48 h; growth rescue (activation): at 46.1 µM (top of the series) unless noted
How it was run: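 Yeast fusion mutant, YPEG (non-fermentable carbon), compound, 48 h at 37C non-permissive; CellTiterGlo added, 10 min RT, luminescence read. Rescued growth = division inhibition.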
For `C=CCN(CC=C)S(=O)(=O)c1ccc(NC(=S)NC(=O)/C=C/c2cccc3ccccc23)cc1`, the “growth rescue (activation)” value was inactive: 1.36%. For `Cc1cccc(C)c1OCC1CNC(=O)O1` (configuration not stated), the “growth rescue (activation)” value was inactive: 1.98%. For `O=C(Nc1ccc(O)cc1)c1ccc(NC(=O)c2ccco2)cc1`, the Potency was inconclusive: 35.5 µM [activator, single point]. In the case of `CC(C)c1ccc(C2=C(O)c3ccccc3C(=O)C2=O)cc1`, the Potency is reported as inconclusive: 11.2 µM [activator, partial curve]. For `CC(=O)/C=C/c1ccccc1Oc1c(F)c(F)nc(F)c1F`, the “growth rescue (activation)” value was inactive: -19.4%. For `O=C(c1ccccc1)c1cc(Cl)ccc1N1C(=O)C=CC1=O`, the “growth rescue (activation)” value was inactive: -2.58%. With `Cc1c(C)c2ccc(OCC(=O)N3CCN(c4ccccc4)CC3)cc2oc1=O` the Potency was inconclusive: 15.8 µM [activator, partial curve]. With `O=C(CSc1cccc[n+]1[O-])c1ccc(-c2ccccc2)cc1` the Potency was inconclusive: 35.5 µM [activator, single point]. In the case of `Cc1ccc(S(=O)(=O)NC(CCc2ccccc2)CC(=O)C(C)(C)C)cc1` (configuration not stated), the Potency is reported as inconclusive: 28.2 µM [activator, single point]. With `CCc1ccc(OS(=O)(=O)c2cn(C)c(=O)n(C)c2=O)cc1` the Potency was inconclusive: 25.1 µM [activator, single point]. With `CC(Nc1n[nH]c(=O)[nH]c1=O)C(=O)N/N=C/c1cccs1` (configuration not stated) the Potency was inconclusive: 12.6 µM [activator, partial curve]. With `COc1ccc(N(C(=O)c2ccco2)S(=O)(=O)c2cc(Cl)c(Cl)cc2Cl)cc1` the Potency was inconclusive: 14.1 µM [activator, partial curve]. For `COc1ccc(OC)c(NC(=O)c2cccc(Cn3cc(Br)c([N+](=O)[O-])n3)c2)c1`, the Potency was inconclusive: 35.5 µM [activator, single point]. In the case of `O=C(NCc1ccc(F)cc1)C(c1ccccc1)c1ccccc1`, the “growth rescue (activation)” value is reported as inactive: 0.12%. In the case of `Cc1cccc(C(=O)C2CCOC(C)(C)C2)c1` (configuration not stated), the “growth rescue (activation)” value is reported as inactive: 0.741%. With `COc1ccc([C@H]2CC(=O)C=C(c3cc(Cl)cc(Cl)c3)C2)cc1` the Potency was inconclusive: 35.5 µM [activator, single point]. For `O=C(NCc1nnc2c3ccccc3c(-c3ccccc3)nn12)c1ccc(Cl)cc1`, the Potency was inconclusive: 35.5 µM [activator, single point]. In the case of `O=C(CSc1nc2ncccc2[nH]1)Nc1ccc2c(c1)OCO2`, the Potency is reported as inconclusive: 35.5 µM [activator, single point]. With `CCCCn1nc(C(=O)NCC2COc3ccccc3O2)c2ccccc2c1=O` (configuration not stated) the Potency was inconclusive: 11.2 µM [activator, partial curve]. In the case of `COc1ccccc1[C@@H]1C(c2cccc(C)c2)=NN(c2ccccc2)[C@H]1C(=O)N1CCOC1=O`, the Potency is reported as inconclusive: 6.31 µM [activator, single point]. For `C/C(N)=C(/C#N)C(=O)CSc1cc(C)c2cc(C)cc(C)c2n1`, the “growth rescue (activation)” value was inactive: -4.6%. With `COc1ccc(-c2nc3ncnn3cc2C)cc1F` the Potency was inconclusive: 5.62 µM [activator, single point]. With `CC(=O)c1cccc(-n2nnnc2SCC(=O)Nc2ccccc2N2CCCCC2)c1` the Potency was inconclusive: 11.2 µM [activator, partial curve]. For `CC(=O)C1=C(C)NC(SCC(=O)Nc2nc3ccccc3s2)=C(C#N)C1c1ccc(Cl)cc1` (configuration not stated), the Potency was inconclusive: 20 µM [activator, single point]. In the case of `CCn1c2ccccc2c2cc(NC(=O)CN(C)CC(=O)Nc3ccc(N4CCOCC4)cc3)ccc21`, the “growth rescue (activation)” value is reported as inactive: -0.79%. For `COC(=O)c1ccc(-n2c(C)cc(C(=O)CSc3ccc(NC(C)=O)cc3)c2C)cc1`, the Potency was inconclusive: 17.8 µM [activator, single point]. For `Cc1c(NC(=O)C2CCCN(S(=O)(=O)c3cnc[nH]3)C2)c(=O)n(-c2ccccc2)n1C` (configuration not stated), the Potency was inconclusive: 5.62 µM [activator, single point]. For `CC(C)[C@@H]1CC[C@@H](C)C[C@@H]1P(=O)(c1ccccc1)c1ccccc1`, the Potency was inconclusive: 2.59 µM [activator, full curve]. With `C=C(C)COc1ccc(-c2n[nH]c(C)c2-c2ccccc2OC)c(O)c1` the Potency was inconclusive: 22.4 µM [activator, partial curve]. For `Nc1nc(-c2ccc(Br)cc2)cs1`, the “growth rescue (activation)” value was inactive: 15.8%. In the case of `O=C(Nc1ccccc1C(=O)Nc1ccc(Br)cn1)c1ccccc1Cl`, the Potency is reported as inconclusive: 12.6 µM [activator, partial curve]. In the case of `CC(=O)N1c2ccc3ccccc3c2C2C=CCC2C1c1ccc(Br)cc1` (configuration not stated), the Potency is reported as inconclusive: 20 µM [activator, single point]. With `Cc1cccc(N2CCN(C(=O)COc3ccc4ccc(=O)oc4c3)CC2)c1C` the Potency was inconclusive: 11.2 µM [activator, partial curve]. With `CC(C)c1cc(NC(=O)CCl)on1` the “growth rescue (activation)” value was inactive: -26.5%. For `CC1CCN(CCCCOc2cccc(C(C)C)c2)CC1`, the Potency was inconclusive: 5.62 µM [activator, partial curve]. For `CC(C)CC(=O)Nc1ccc(Nc2ccccc2)cc1`, the “growth rescue (activation)” value was inactive: 1.36%. For `CC1CCc2c(sc(NC(=O)/C=C/c3cccs3)c2C(=O)O)C1` (configuration not stated), the “growth rescue (activation)” value was inactive: -1.71%. With `COc1ccccc1NC(=O)c1cc(-c2cc(OC)c(OC)c(OC)c2)nc2ccccc12` the Potency was inconclusive: 12.6 µM [activator, partial curve]. In the case of `CCOc1ccccc1NS(=O)(=O)c1ccc2c(c1)N(C)CCO2`, the Potency is reported as inconclusive: 35.5 µM [activator, single point]. With `CC(=O)c1ccc(N2CCN(c3ccccc3O)CC2)c([N+](=O)[O-])c1` the Potency was inconclusive: 12.6 µM [activator, single point]. In the case of `CN1CCN(NC(=O)c2cc(S(=O)(=O)N3CCOCC3)c(Cl)cc2Cl)CC1`, the “growth rescue (activation)” value is reported as inactive: -3.76%. In the case of `Nc1nnc(SCC(=O)OCC(=O)c2ccccc2)s1`, the Potency is reported as active: 31.6 µM. In the case of `C[C@H](NC(=O)c1nc[nH]c1C(=O)NC(c1ccccc1)c1ccccc1)C(=O)OC(C)(C)C`, the “growth rescue (activation)” value is reported as inactive: 14.1%. In the case of `Cc1cc(C)nc(SCC(=O)Nc2ccc3c(c2)OCO3)n1`, the “growth rescue (activation)” value is reported as inactive: -2.2%. For `CCCCN(C(=O)Oc1ccccc1)C1CCS(=O)(=O)C1` (configuration not stated), the “growth rescue (activation)” value was inactive: -3.85%. For `CC(C)c1ccc2nc(NC(=O)C3CC3)sc2c1`, the “growth rescue (activation)” value was inactive: -2.25%. With `CCCC1OC2CC3C4CCC5=CC(=O)C=CC5(C)C4C(O)CC3(C)C2(C(=O)O)O1` (configuration not stated) the “growth rescue (activation)” value was inactive: 0.607%. For `COc1ccc(C2CC(c3ccc(OC)cc3)n3nc(NC(=O)c4cccs4)nc3N2)cc1` (configuration not stated), the “growth rescue (activation)” value was inactive: -1.09%. With `CCOc1ccc(N2C(=O)C3C(c4ccccc4)=NN(c4ccccc4)C3C2=O)cc1` (configuration not stated) the Potency was inconclusive: 7.08 µM [activator, partial curve]. In the case of `COC(=O)c1c(NC(=O)Cc2cccs2)sc2c1CCCC2`, the Potency is reported as inconclusive: 14.1 µM [activator, single point]. In the case of `CCN1CCN(Cc2ccc(NC(=O)c3ccc(C)c(NC(=O)c4csc(-c5ccncc5)n4)c3)cc2C(F)(F)F)CC1`, the Potency is reported as inconclusive: 2.82 µM [activator, partial curve]. With `C/C(=N\NC(=O)C(C)Nc1cccc(Cl)c1)c1ccc([N+](=O)[O-])cc1` (configuration not stated) the Potency was inconclusive: 35.5 µM [activator, single point]. With `COc1cc(-c2nc3cc(C)ccn3c2NC2CCCCC2)ccc1-c1ccc(C(C)=O)cc1` the Potency was inconclusive: 15.8 µM [activator, single point]. For `Cc1ccc(F)cc1NC(=O)c1ccc(NS(=O)(=O)c2ccc(Br)s2)cc1`, the Potency was inconclusive: 25.1 µM [activator, single point]. In the case of `COc1cc(C(=O)Nc2nc(C)c(Cc3ccc4c(c3)OCO4)s2)cc(OC)c1OC`, the Potency is reported as inconclusive: 35.5 µM [activator, single point]. In the case of `Cc1ccc(S[C@@H](CCN2CC[C@H](C)CCC2=O)c2ccccc2)cc1`, the “growth rescue (activation)” value is reported as inactive: -0.997%. For `O=Cc1ccc(N2N=C(c3ccccc3)CC2c2ccccc2)cc1` (configuration not stated), the Potency was active: 8.91 µM. In the case of `COc1ccc2c(c1)CCC/C2=N\OC(=O)c1ccccc1F`, the Potency is reported as inconclusive: 12.6 µM [activator, single point]. With `Cc1ccc(C2N(C)c3ccccc3-c3nc4ccccc4n32)o1` (configuration not stated) the Potency was inconclusive: 22.4 µM [activator, single point]. With `C/C=C/COC(=O)c1[nH]c2c(c1C)C(=O)CC(c1ccc(N(C)C)cc1)C2` (configuration not stated) the Potency was inconclusive: 35.5 µM [activator, single point]. With `O=C(COC(=O)c1ccc2ncsc2c1)Nc1cc(Cl)ccc1F` the Potency was inconclusive: 14.1 µM [activator, partial curve]. For `O=C(CCS(=O)(=O)c1ccccc1)Nc1cccc(-c2nc3ccccc3s2)c1`, the Potency was inconclusive: 31.6 µM [activator, single point]. For `CCOC(=O)c1c(-c2ccccc2)oc2ccc(OC(C)=O)cc12`, the Potency was inconclusive: 22.4 µM [activator, partial curve]. In the case of `CCCCCCCCCCCCCCCC(=O)NCCO`, the Potency is reported as active: 4.11 µM. In the case of `CCCCCCCCCCCCCCCC(=O)OC(CC(=O)O)C[N+](C)(C)C` (configuration not stated), the Potency is reported as “inactive”. In the case of `Cc1cc(OC(C)C(=O)Nc2ccncc2)ccc1Cl` (configuration not stated), the “growth rescue (activation)” value is reported as inactive: -0.266%. For `CCC(=O)N/C(N)=N/c1nc(C)c2cc(OC)ccc2n1`, the “growth rescue (activation)” value was inactive: 6.58%. In the case of `COCc1c(N)c(C)nc(Cl)c1C#N`, the Potency is reported as inconclusive: 20 µM [activator, single point]. With `CCCCCc1ccc(-c2ccc(/C=C/C(=O)O)cc2)nc1` the Potency was active: 12.6 µM. In the case of `Cc1ccc(C)c(NC(=O)CN(C)C(=O)c2ccc3[nH]c4c(c3c2)CC(C)CC4)c1` (configuration not stated), the Potency is reported as inconclusive: 35.5 µM [activator, single point]. With `COc1ccccc1NC(=O)CN1CCC(c2nc3ccc(C)cc3[nH]2)CC1` the “growth rescue (activation)” value was inactive: -1.24%. In the case of `CCC(C)Sc1ccc([C@@H]2[C@H]3C(=O)N(CC)C(=O)[C@H]3[C@]3(C(=O)OC)CCCCN23)cc1` (some centres not stated), the Potency is reported as inconclusive: 11.2 µM [activator, partial curve].
